In publication PMC7819943, “Rice protein-binding microarrays: a tool to detect cis-acting elements near promoter regions in rice”:
Some of the results follow.

Chains of the proteins cited; added tags and fusions are not shown.
UniProt Q0JBA9, entry or part of it: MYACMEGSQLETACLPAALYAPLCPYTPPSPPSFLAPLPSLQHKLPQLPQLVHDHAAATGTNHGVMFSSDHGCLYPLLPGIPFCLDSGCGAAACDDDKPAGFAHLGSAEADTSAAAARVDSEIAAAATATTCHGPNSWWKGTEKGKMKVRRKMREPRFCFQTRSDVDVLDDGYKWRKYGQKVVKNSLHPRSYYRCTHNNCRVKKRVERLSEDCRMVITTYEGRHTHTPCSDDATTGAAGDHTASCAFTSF

Biological target: OsWRKY34 (Oryza sativa, UniProt Q0JBA9 1-250)
Experiment: protein-binding microarray (RPBM); PBS, 2% BSA, 51.3 ng/ul salmon testes DNA, 50 uM zinc acetate, 200 nM TF, 25 C, 1 h; high values mean tight binding
Conditions: protein: recombinant; tags: N-terminal polyhistidine and DsRed monomer fusion (pET32a); label: CyDye5-dUTP incorporated in the synthesized complementary strand; 3' TTTTT single-stranded linker to array surface; dsDNA, one strand shown
Method in brief: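 Binding signal is reported as fluorescence intensity per feature (arbitrary units) from an Axon 4000B scanner. Incubation used 200 nM of each Ni–NTA-purified, N-terminally polyhistidine- and DsRed-fused transcription factor from E. coli BL21-CodonPlus on a double-stranded custom Agilent array for 1 h at 25 °C, with 50 µM zinc acetate in the buffer, followed by washing.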

| Sequence | binding signal |
| --- | --- |
| ACTACCTCTTTTGATTTTTGGGTATACGTTTGACCATTCGCGGAGTCACCTAGTGCAG | 10800 fluorescence intensity (a.u.) |
| CTATACCTGGTCCCATCTGTCATACACACATTACGTTTTGCGGAGTCACCTAGTGCAG | 8730 fluorescence intensity (a.u.) |
| CATCACCAGCCTCACCTTCGCCTCCACCTCCTCCGCGCTCCGGAGTCACCTAGTGCAG | 10900 fluorescence intensity (a.u.) |
| TATATACTGCACTTCTGCCCTATACACTGTATTTGTATTTCGGAGTCACCTAGTGCAG | 12800 fluorescence intensity (a.u.) |
| TGTTTATAGTTTAGCTTTGCTCATTACTAGCTATATTCTGCGGAGTCACCTAGTGCAG | 8090 fluorescence intensity (a.u.) |
| GCATTTCGGCGAAGCCTACTTTTGATGATGGCATGTATCCCGGAGTCACCTAGTGCAG | 8930 fluorescence intensity (a.u.) |
| TCATGTGTTTGCGAGCAGCTCTTGCTCTGTTATTCACATGCGGAGTCACCTAGTGCAG | 8400 fluorescence intensity (a.u.) |
| ATTTACTCCTCGTTCCACCTTCCCCGCTTCAATTCGCCTCCGGAGTCACCTAGTGCAG | 8180 fluorescence intensity (a.u.) |
| GACTTTTCTTATACTTTTTCCATCCCATAAAAAACTACTACGGAGTCACCTAGTGCAG | 8210 fluorescence intensity (a.u.) |
| ATCTCTGCTCAGTTTCTTTTTTCTGCTTGAACTTGAACATCGGAGTCACCTAGTGCAG | 9940 fluorescence intensity (a.u.) |
| TACCTCGACTCACCCTTCCATGGCCTCCTCCACACCTCCTCGGAGTCACCTAGTGCAG | 9000 fluorescence intensity (a.u.) |
| ATCATGCCTCAAATCATCGAATTGCTCTACAAATTTCATACGGAGTCACCTAGTGCAG | 10300 fluorescence intensity (a.u.) |
| ACCCTCTTGACCTGCCCGGTTTCTCTCGAACACACCAAAACGGAGTCACCTAGTGCAG | 9390 fluorescence intensity (a.u.) |
| GGGGTTGGGTTGGGTACTTGGGTTCGGGTGACTCAAGTAGCGGAGTCACCTAGTGCAG | 13200 fluorescence intensity (a.u.) |
| TAATTTTGAAGCCTGGTCCAGTCCACGCCACCAACGGACGCGGAGTCACCTAGTGCAG | 8440 fluorescence intensity (a.u.) |
| AATATCTAACACTACTCCACACTGTCCACAATTACTGCGACGGAGTCACCTAGTGCAG | 9250 fluorescence intensity (a.u.) |
| CCCTAAATATTTGACGCCGTTGACTTTTTTAAATATGTTTCGGAGTCACCTAGTGCAG | 27300 fluorescence intensity (a.u.) |
| CGCACATCCATCCACGTCATCGATCCGCGCCGCGTGCCTTCGGAGTCACCTAGTGCAG | 9880 fluorescence intensity (a.u.) |
| TCCATCTAATATTCTTGAGGCCACCAATATATGCTTTTTCCGGAGTCACCTAGTGCAG | 8730 fluorescence intensity (a.u.) |
| TCCACCATTTACTTTTCCAATCTATCTCCATTACTCAACCCGGAGTCACCTAGTGCAG | 10100 fluorescence intensity (a.u.) |
| GGGATGGTGTTTGGGTTAGTGGCAAGTGGGGATAAGGGAACGGAGTCACCTAGTGCAG | 8990 fluorescence intensity (a.u.) |

| Sequence | binding signal |
| --- | --- |
| CTTCACCCCGCCCACGCGGACGCATCCGATCCCGCCGCATCGGAGTCACCTAGTGCAG | 11100 fluorescence intensity (a.u.) |
| AATAAGGCGAATAGTCAAATATGTGAGAAAAAGTCAACGGCGGAGTCACCTAGTGCAG | 9270 fluorescence intensity (a.u.) |
| AACTCACGTCGTTTTACATATATTCTCCATATTCTTTTTTCGGAGTCACCTAGTGCAG | 8990 fluorescence intensity (a.u.) |
| CCCATATTATTCTTACGTTTTTTCTATTCTTATGCTTTGACGGAGTCACCTAGTGCAG | 10300 fluorescence intensity (a.u.) |
| CGGGTGAAAAATTCCTTGTCTCTTGTCTCATTTACTTGTTCGGAGTCACCTAGTGCAG | 12600 fluorescence intensity (a.u.) |
| TTGACCATGTAAAGTCAACTTCATTTCTGTGTGTGTTTTGCGGAGTCACCTAGTGCAG | 8480 fluorescence intensity (a.u.) |
| TGGCTCCGCCACGTCCTCGTCGCCTGGAACTCGCTCGTCTCGGAGTCACCTAGTGCAG | 8680 fluorescence intensity (a.u.) |
| CTTGTTTCTTCTTCTTCTTCTAGATTTGATTTTCTTTTTTCGGAGTCACCTAGTGCAG | 10000 fluorescence intensity (a.u.) |
| CAGACTTTTCAGCTTCGGTTTCCCTTGTTTCTGATCTTTCCGGAGTCACCTAGTGCAG | 8440 fluorescence intensity (a.u.) |
| CCAGTAGCTACACCACCCGGCCTTGTTTGGCAAAGCTCATCGGAGTCACCTAGTGCAG | 8420 fluorescence intensity (a.u.) |
| ATATTTGCACTTTTATACTAAACCACCATTAAATTTTGATCGGAGTCACCTAGTGCAG | 9100 fluorescence intensity (a.u.) |
| CGTCCTCACCCGCACGCAATCACCGCGAAAACGCCCAAAACGGAGTCACCTAGTGCAG | 9680 fluorescence intensity (a.u.) |
| GCCGCTTCGTCCGCGACCGCCTCCGTCTCCGCGACCGGCCCGGAGTCACCTAGTGCAG | 8200 fluorescence intensity (a.u.) |
| CCCATTTCGCACTCTATATATACACCATCCATTTTCAGTCCGGAGTCACCTAGTGCAG | 11300 fluorescence intensity (a.u.) |
| GGGCCAGTTTGCTCGTACAACTCACACACACTCATATCCACGGAGTCACCTAGTGCAG | 8280 fluorescence intensity (a.u.) |
| TATTCCTGATTTTAGCACCATCGTCAGTTTTTTTTCATCTCGGAGTCACCTAGTGCAG | 12100 fluorescence intensity (a.u.) |
| CGCCTATTCCGCCACGTACCGACGCCCGTTCCCGCAGATGCGGAGTCACCTAGTGCAG | 9510 fluorescence intensity (a.u.) |
| TTCACGTCGTTCCCGTTCAGCCCCGACGCCAGCAGCAGCCCGGAGTCACCTAGTGCAG | 8500 fluorescence intensity (a.u.) |
| AACTATTATGTAGAGGTTTGGGGCTTTGACTTTTGATGTTCGGAGTCACCTAGTGCAG | 13300 fluorescence intensity (a.u.) |
| GACCAACCTTCCAGATCTTCCTTTCTACCACTCACCTAGGCGGAGTCACCTAGTGCAG | 8920 fluorescence intensity (a.u.) |
| ACACAGCCTAACTAACAAAACCGTTGACTCACCAATCGCCCGGAGTCACCTAGTGCAG | 12200 fluorescence intensity (a.u.) |

Two successive records from above:

| Sequence | binding signal |
| --- | --- |
| CAGACTTTTCAGCTTCGGTTTCCCTTGTTTCTGATCTTTCCGGAGTCACCTAGTGCAG | 8440 fluorescence intensity (a.u.) |
| CCAGTAGCTACACCACCCGGCCTTGTTTGGCAAAGCTCATCGGAGTCACCTAGTGCAG | 8420 fluorescence intensity (a.u.) |
